Measurements from the supplement of paper PMC10849652.
Some of the results follow.

Chains of the proteins cited; added tags and fusions are not shown. Lines headed by an entry give the natural chain unless they say otherwise; changes in a name come on top.
UniProt Q12962, whole entry, looked up: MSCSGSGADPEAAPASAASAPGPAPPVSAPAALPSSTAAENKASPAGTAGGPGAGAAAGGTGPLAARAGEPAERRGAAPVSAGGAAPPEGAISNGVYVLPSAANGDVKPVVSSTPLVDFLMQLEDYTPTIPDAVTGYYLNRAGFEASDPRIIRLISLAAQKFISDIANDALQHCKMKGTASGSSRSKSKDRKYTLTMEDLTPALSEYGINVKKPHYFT
UniProt Q9ULQ0: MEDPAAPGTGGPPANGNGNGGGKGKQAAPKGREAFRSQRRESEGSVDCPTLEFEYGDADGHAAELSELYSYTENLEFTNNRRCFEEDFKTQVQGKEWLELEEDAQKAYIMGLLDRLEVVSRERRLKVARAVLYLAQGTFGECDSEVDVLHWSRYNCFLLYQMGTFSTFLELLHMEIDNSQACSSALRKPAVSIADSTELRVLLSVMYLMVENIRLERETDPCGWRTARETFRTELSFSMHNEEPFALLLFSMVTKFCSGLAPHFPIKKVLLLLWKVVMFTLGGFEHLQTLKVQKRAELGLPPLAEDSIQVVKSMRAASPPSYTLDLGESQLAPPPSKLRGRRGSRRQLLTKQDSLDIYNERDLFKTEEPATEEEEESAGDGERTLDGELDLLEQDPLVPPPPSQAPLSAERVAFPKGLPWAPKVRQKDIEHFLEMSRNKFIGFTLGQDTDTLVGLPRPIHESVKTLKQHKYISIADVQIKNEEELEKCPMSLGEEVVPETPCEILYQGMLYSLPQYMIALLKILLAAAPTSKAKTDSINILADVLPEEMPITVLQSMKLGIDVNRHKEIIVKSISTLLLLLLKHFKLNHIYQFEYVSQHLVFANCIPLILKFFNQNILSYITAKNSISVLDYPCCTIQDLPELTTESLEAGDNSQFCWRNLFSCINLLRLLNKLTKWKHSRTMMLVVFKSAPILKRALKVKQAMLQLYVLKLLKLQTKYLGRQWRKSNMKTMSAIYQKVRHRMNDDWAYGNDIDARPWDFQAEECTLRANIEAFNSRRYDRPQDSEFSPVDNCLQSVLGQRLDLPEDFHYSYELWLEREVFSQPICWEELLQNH
UniProt Q92804: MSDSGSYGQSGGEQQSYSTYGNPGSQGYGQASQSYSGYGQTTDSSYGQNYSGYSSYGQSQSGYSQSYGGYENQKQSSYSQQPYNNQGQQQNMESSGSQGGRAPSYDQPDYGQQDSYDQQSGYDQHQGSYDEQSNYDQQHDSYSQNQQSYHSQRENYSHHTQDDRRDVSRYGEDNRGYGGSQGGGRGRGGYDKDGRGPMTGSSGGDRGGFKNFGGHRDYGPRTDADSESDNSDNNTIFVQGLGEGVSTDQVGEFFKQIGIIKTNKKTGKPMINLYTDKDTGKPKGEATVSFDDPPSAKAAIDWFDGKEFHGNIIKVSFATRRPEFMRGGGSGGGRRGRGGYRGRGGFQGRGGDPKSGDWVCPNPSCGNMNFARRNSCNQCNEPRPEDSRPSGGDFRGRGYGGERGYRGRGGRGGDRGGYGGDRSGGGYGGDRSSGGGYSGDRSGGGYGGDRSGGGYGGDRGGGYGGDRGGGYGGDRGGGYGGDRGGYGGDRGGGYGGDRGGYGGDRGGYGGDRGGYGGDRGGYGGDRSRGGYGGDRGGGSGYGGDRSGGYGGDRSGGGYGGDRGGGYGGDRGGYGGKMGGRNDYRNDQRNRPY
UniProt O60506: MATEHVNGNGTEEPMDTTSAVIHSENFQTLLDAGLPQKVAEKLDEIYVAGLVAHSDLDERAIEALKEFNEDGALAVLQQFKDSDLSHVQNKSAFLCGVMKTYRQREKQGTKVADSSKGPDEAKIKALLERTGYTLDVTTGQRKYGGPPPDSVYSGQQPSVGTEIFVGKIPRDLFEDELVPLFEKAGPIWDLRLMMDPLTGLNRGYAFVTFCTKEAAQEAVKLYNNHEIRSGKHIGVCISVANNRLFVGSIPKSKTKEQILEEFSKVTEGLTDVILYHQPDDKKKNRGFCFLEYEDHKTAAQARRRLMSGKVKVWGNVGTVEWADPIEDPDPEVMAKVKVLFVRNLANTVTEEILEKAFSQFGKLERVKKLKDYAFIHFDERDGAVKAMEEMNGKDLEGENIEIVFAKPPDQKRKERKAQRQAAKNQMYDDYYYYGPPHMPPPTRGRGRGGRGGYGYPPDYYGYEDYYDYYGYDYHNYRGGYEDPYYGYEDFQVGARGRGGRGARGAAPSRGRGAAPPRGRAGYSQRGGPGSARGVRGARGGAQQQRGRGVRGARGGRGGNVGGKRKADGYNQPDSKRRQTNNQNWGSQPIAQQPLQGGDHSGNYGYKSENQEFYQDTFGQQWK
UniProt P46977: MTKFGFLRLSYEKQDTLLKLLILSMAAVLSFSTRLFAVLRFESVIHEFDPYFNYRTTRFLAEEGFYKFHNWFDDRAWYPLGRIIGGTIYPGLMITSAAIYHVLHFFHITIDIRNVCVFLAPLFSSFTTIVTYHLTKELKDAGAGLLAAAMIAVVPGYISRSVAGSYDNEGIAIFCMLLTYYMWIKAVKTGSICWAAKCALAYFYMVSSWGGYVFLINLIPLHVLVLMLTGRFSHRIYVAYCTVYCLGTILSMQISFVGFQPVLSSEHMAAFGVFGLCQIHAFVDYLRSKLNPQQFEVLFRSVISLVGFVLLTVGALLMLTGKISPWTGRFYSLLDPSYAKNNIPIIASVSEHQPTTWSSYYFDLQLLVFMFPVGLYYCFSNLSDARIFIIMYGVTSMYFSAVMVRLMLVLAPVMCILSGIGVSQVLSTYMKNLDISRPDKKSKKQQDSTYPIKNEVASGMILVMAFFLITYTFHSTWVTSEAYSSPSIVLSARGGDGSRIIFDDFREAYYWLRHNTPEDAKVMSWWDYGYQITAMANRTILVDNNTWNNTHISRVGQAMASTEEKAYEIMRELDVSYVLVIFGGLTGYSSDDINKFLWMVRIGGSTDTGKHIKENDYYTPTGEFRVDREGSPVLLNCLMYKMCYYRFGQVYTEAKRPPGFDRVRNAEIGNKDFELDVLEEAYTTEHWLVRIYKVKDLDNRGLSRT
UniProt Q12846: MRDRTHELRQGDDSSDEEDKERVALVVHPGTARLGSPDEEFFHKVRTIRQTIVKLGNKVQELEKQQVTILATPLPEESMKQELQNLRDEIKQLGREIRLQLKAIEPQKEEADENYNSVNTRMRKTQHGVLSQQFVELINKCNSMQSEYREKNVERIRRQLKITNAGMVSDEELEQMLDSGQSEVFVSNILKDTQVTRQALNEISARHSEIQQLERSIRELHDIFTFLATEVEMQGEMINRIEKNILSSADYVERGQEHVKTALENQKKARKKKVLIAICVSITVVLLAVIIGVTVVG
UniProt A2RTX5: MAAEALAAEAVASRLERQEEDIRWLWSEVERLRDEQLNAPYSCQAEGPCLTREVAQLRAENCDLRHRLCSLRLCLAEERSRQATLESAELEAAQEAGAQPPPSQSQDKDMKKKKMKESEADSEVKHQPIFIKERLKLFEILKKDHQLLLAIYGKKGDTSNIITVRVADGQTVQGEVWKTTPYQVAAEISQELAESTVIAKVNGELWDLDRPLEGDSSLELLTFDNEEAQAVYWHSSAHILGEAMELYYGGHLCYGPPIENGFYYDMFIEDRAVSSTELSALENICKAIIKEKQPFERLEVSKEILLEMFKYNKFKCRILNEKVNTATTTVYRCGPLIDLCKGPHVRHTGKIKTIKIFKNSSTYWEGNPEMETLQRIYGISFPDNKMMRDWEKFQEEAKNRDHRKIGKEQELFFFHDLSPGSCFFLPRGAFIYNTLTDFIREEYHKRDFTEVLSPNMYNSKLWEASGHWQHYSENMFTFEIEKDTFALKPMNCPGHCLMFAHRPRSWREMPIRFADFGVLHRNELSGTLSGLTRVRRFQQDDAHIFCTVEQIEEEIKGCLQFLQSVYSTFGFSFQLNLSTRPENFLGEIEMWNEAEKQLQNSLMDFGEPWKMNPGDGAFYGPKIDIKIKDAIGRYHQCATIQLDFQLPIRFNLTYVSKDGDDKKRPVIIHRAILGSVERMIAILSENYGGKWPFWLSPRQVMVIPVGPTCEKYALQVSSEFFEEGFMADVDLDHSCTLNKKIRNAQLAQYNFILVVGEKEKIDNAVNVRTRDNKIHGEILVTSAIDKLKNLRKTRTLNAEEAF
UniProt Q6NXT6: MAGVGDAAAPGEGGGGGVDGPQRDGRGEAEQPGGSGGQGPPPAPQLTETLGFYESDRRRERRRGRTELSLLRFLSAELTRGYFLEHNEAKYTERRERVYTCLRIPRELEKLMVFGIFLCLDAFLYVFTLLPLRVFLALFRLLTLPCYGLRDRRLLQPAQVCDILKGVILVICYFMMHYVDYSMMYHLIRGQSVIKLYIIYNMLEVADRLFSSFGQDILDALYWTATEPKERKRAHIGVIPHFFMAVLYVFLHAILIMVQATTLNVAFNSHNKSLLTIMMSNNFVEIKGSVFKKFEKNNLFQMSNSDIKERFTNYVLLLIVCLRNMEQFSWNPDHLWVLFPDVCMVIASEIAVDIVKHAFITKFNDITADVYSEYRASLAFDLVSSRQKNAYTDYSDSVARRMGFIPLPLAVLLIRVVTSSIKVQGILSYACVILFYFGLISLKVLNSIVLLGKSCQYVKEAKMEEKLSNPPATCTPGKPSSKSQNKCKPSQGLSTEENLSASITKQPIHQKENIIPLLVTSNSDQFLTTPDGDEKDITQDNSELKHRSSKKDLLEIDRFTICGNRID
UniProt Q13190: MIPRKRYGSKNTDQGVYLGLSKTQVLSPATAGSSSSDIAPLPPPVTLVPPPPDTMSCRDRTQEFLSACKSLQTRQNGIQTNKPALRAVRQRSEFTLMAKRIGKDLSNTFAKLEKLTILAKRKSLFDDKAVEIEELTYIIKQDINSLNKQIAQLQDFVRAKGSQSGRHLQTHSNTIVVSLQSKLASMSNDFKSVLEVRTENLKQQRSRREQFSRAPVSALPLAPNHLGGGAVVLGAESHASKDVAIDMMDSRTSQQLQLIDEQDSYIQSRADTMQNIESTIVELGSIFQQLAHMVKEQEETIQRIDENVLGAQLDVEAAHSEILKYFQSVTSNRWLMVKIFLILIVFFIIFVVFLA
UniProt Q9UBS9: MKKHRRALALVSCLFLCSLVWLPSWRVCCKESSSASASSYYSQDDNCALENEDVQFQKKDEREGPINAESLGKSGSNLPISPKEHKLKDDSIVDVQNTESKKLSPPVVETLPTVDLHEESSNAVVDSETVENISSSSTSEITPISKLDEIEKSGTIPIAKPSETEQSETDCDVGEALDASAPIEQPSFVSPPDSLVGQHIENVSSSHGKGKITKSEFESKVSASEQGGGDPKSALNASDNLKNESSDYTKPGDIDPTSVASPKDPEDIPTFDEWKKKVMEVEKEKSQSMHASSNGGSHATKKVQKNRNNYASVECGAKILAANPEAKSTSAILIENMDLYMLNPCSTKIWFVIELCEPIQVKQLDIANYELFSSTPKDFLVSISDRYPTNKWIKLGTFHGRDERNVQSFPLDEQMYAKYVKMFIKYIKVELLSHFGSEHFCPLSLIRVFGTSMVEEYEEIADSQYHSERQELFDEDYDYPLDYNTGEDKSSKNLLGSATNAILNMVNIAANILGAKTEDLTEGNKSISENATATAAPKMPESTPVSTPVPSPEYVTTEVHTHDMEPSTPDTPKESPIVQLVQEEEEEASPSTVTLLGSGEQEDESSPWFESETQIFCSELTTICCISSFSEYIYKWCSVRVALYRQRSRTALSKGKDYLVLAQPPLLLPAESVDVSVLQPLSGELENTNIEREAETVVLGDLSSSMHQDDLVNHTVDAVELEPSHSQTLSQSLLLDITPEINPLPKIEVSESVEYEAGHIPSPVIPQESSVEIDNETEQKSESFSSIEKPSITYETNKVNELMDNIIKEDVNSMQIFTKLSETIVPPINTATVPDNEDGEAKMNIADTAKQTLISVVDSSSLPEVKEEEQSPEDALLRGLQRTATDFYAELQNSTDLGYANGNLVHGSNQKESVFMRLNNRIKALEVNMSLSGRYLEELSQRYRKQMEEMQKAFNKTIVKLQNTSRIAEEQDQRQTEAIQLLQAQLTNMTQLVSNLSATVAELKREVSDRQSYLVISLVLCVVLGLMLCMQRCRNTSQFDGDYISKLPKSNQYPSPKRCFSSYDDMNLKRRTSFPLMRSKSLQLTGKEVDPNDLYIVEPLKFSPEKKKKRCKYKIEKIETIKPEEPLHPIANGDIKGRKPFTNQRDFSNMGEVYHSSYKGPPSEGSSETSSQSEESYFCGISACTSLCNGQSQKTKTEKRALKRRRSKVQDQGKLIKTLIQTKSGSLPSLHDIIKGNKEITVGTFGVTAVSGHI
UniProt O43760: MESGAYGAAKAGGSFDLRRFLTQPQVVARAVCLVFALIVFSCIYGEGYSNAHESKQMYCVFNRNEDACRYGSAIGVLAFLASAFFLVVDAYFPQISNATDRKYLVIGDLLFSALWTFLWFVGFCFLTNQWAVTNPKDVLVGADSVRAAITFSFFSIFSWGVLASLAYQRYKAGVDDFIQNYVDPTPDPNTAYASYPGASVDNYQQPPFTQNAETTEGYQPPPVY

Experiments:
Assay in all cases: log2 fold change, soluble protein after heating vs DMSO (PISA); higher = thermal stabilisation; K562 cells, 10 uM, 30 min; active = over 0.2 and 3.5 SD of the protein, either way, in both replicates (recomputed)
saracatinib = compound: CN1CCN(CCOc2cc(OC3CCOCC3)c3c(Nc4c(Cl)ccc5c4OCO5)ncnc3c2)CC1 [saracatinib]
Method in brief: (§1)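 K562 cells at 2×10^6 cells/mL were given 10 μM compound for 30 min. Aliquots then went through 3 min of heating across 48°C-58°C, were pooled, and were extracted in PBS with 0.5% NP-40 at 4°C, and the supernatant after 21,000xg for 90 min was quantified by TMTpro 16plex LC-MS/MS with channel sums equalised. Thermal stability relative to control samples, from duplicates, is given as log2 fold change.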

sotrastaurin = compound: CN1CCN(c2nc(C3=C(c4c[nH]c5ccccc45)C(=O)NC3=O)c3ccccc3n2)CC1 [sotrastaurin]
Method in brief: as §1

alvocidib = compound: CN1CC[C@H](c2c(O)cc(O)c3c(=O)cc(-c4ccccc4Cl)oc23)[C@H](O)C1 [alvocidib]
Method in brief: as §1

Tubastatin A = compound: CN1CCc2c(c3ccccc3n2Cc2ccc(C(=O)NO)cc2)C1 [Tubastatin A]
Method in brief: as §1

[1] = compound: CNC(=O)C1=CC=CC=C1NC2=NC(=NC=C2Cl)NC3=C(C=C(C=C3)N4CCOCC4)OC
Method in brief: as §1

defactinib = compound: CNC(=O)c1ccc(Nc2ncc(C(F)(F)F)c(NCc3nccnc3N(C)S(C)(=O)=O)n2)cc1 [defactinib]
Method in brief: as §1

rucaparib = compound: CNCc1ccc(-c2[nH]c3cc(F)cc4c3c2CCNC4=O)cc1 [rucaparib]
Method in brief: as §1

[2] = compound: CNc1nc(-c2ccc3c(N)n[nH]c3c2)cc(N2C[C@@H](C(=O)NC3CCCCC3)CC[C@H]2C)n1
Method in brief: as §1

encorafenib = compound: COC(=O)N[C@@H](C)CNc1nccc(-c2cn(C(C)C)nc2-c2cc(Cl)cc(NS(C)(=O)=O)c2F)n1 [encorafenib]
Method in brief: as §1

[3] = compound: COC(=O)[C@H](CCSC)NC(=O)C1=C(C=C(C=C1)NC[C@H](CS)N)C2=CC=CC=C2
Method in brief: as §1

Measured: log2 fold change

STX10 (UniProt O60499)
inactive: saracatinib 0.011 | sotrastaurin -0.082 | alvocidib -0.059 | Tubastatin A -0.009 | [1] -0.037 | defactinib 0.011 | rucaparib 0.008 | [2] -0.018 | encorafenib 0.17 | [3] -0.017

STX8 (UniProt Q9UNK0)
inactive: saracatinib 0.103 | sotrastaurin 0.048 | alvocidib 0.098 | Tubastatin A -0.045 | [1] 0.015 | defactinib 0.004 | rucaparib -0.002 | [2] -0.056 | encorafenib -0.005 | [3] 0.027

TAGLN2 isoform 2 (UniProt P37802)
inactive: saracatinib 0.043 | sotrastaurin -0.002 | alvocidib -0.08 | Tubastatin A 0.008 | [1] 0.049 | defactinib -0.035 | rucaparib 0.017 | [2] -0.002 | encorafenib -0.032 | [3] 0.001

SYNRG (UniProt Q9UMZ2)
inactive: saracatinib -0.039 | sotrastaurin -0.083 | alvocidib -0.053 | Tubastatin A 0.002 | [1] 0.041 | defactinib -0.028 | rucaparib -0.017 | [2] -0.012 | encorafenib -0.001 | [3] 0.009

TATDN1 (UniProt Q6P1N9)
inactive: saracatinib 0.076 | sotrastaurin 0.077 | alvocidib 0.05 | Tubastatin A -0.048 | [1] -0.016 | defactinib 0.005 | rucaparib -0.033 | [2] -0.027 | encorafenib -0.027 | [3] 0.06

TAF10 (UniProt Q12962)
inactive: saracatinib 0.049 | sotrastaurin 0.027 | alvocidib 0.009 | Tubastatin A -0.107 | [1] 0.005 | defactinib -0.005 | rucaparib -0.043 | [2] -0.061 | encorafenib -0.014 | [3] -0.085

STOML2 (UniProt Q9UJZ1)
inactive: saracatinib -0.001 | sotrastaurin 0.027 | alvocidib -0.029 | Tubastatin A 0.009 | [1] -0.013 | defactinib -0.006 | rucaparib -0.036 | [2] -0.011 | encorafenib -0.042 | [3] 0.008

TAF7 (UniProt Q15545)
inactive: saracatinib 0.034 | sotrastaurin -0.027 | alvocidib -0.036 | Tubastatin A 0.101 | [1] -0.021 | defactinib -0.107 | rucaparib -0.046 | [2] -0.009 | encorafenib -0.004 | [3] -0.001

STMN3 (UniProt Q9NZ72)
inactive: saracatinib 0.083 | sotrastaurin 0.02 | alvocidib 0.097 | Tubastatin A 0.139 | [1] -0.063 | defactinib -0.021 | rucaparib -0.076 | [2] -0.143 | encorafenib -0.054 | [3] 0.004

TAL1 (UniProt P17542)
inactive: saracatinib 0.039 | sotrastaurin 0.024 | alvocidib -0.014 | Tubastatin A -0.008 | [1] -0.042 | defactinib -0.026 | rucaparib -0.047 | [2] -0.051 | encorafenib 0.026 | [3] -0.002

STRADA (UniProt Q7RTN6)
inactive: saracatinib 0.055 | sotrastaurin 0.039 | alvocidib 0.015 | Tubastatin A 0.03 | [1] -0.019 | defactinib -0.021 | rucaparib 0.031 | [2] -0.029 | encorafenib -0.007 | [3] 0.036

STRBP (UniProt Q96SI9)
inactive: saracatinib -0.06 | sotrastaurin 0.04 | alvocidib 0.304 | Tubastatin A 0.079 | [1] -0.028 | defactinib 0.351 | rucaparib 0.144 | [2] 0.034 | encorafenib -0.038 | [3] -0.123

SULT1A3 isoform 3 (UniProt P0DMM9)
inactive: saracatinib -0.058 | sotrastaurin 0.021 | alvocidib -0.194 | Tubastatin A -0.006 | [1] 0.119 | defactinib -0.114 | rucaparib -0.088 | [2] 0.13 | encorafenib -0.009 | [3] -0.045

STRIP2 (UniProt Q9ULQ0)
inactive: saracatinib -0.003 | sotrastaurin -0.131 | alvocidib -0.007 | Tubastatin A -0.03 | [1] -0.005 | defactinib -0.047 | rucaparib -0.074 | [2] 0.091 | encorafenib 0.084 | [3] 0.051

TAF15 (UniProt Q92804)
inactive: saracatinib -0.053 | sotrastaurin 0.115 | alvocidib 0.138 | Tubastatin A -0.024 | [1] -0.024 | defactinib 0.106 | rucaparib 0.191 | [2] -0.01 | encorafenib -0.04 | [3] -0.012

SYVN1 (UniProt Q86TM6)
inactive: saracatinib 0.009 | sotrastaurin -0.004 | alvocidib -0.069 | Tubastatin A 0.034 | [1] -0.036 | defactinib -0.01 | rucaparib -0.138 | [2] -0.041 | encorafenib 0.027 | [3] 0.004

SYNCRIP (UniProt O60506)
inactive: saracatinib -0.042 | sotrastaurin 0.002 | alvocidib 0.12 | Tubastatin A 0.027 | [1] 0.022 | defactinib 0.158 | rucaparib 0.124 | [2] -0.004 | encorafenib 0.066 | [3] 0.009

STT3A (UniProt P46977)
inactive: saracatinib -0.002 | sotrastaurin -0.008 | alvocidib 0.052 | Tubastatin A -0.037 | [1] 0.003 | defactinib 0.046 | rucaparib -0.007 | [2] -0.026 | encorafenib 0.04 | [3] -0.008

STX4 (UniProt Q12846)
inactive: saracatinib 0.007 | sotrastaurin 0.016 | alvocidib -0.032 | Tubastatin A 0.026 | [1] -0.023 | defactinib -0.114 | rucaparib -0.048 | [2] 0 | encorafenib -0.016 | [3] -0.029

TARSL2 (UniProt A2RTX5)
inactive: saracatinib -0.008 | sotrastaurin 0.002 | alvocidib -0.045 | Tubastatin A -0.003 | [1] -0.045 | defactinib -0.007 | rucaparib -0.023 | [2] 0.009 | encorafenib 0.037 | [3] 0.007

TAB1 (UniProt Q15750)
inactive: saracatinib -0.077 | sotrastaurin -0.086 | alvocidib 0.008 | Tubastatin A 0.115 | [1] -0.012 | defactinib -0.129 | rucaparib -0.085 | [2] -0.035 | encorafenib 0.067 | [3] -0.05

SUDS3 (UniProt Q9H7L9)
inactive: saracatinib -0.107 | sotrastaurin 0.058 | alvocidib 0.029 | Tubastatin A 0.158 | [1] 0.05 | defactinib 0.075 | rucaparib -0.023 | [2] 0.106 | encorafenib -0.101 | [3] 0.151

TAPT1 (UniProt Q6NXT6)
inactive: saracatinib 0.017 | sotrastaurin 0.036 | alvocidib -0.054 | Tubastatin A 0.021 | [1] -0.017 | defactinib -0.02 | rucaparib -0.023 | [2] -0.064 | encorafenib 0.029 | [3] 0.013

STX5 (UniProt Q13190)
inactive: saracatinib -0.023 | sotrastaurin -0.107 | alvocidib -0.053 | Tubastatin A 0.003 | [1] -0.05 | defactinib -0.063 | rucaparib 0.084 | [2] 0.017 | encorafenib 0.077 | [3] -0.161

SUCO (UniProt Q9UBS9)
inactive: saracatinib -0.016 | sotrastaurin 0 | alvocidib 0.054 | Tubastatin A 0.048 | [1] -0.079 | defactinib 0.199 | rucaparib -0.059 | [2] 0.161 | encorafenib 0.012 | [3] 0.095

Two neighbouring entries already listed, for reference:
STX10 (UniProt O60499)
inactive: saracatinib 0.011 | sotrastaurin -0.082 | alvocidib -0.059 | Tubastatin A -0.009 | [1] -0.037 | defactinib 0.011 | rucaparib 0.008 | [2] -0.018 | encorafenib 0.17 | [3] -0.017

STX8 (UniProt Q9UNK0)
inactive: saracatinib 0.103 | sotrastaurin 0.048 | alvocidib 0.098 | Tubastatin A -0.045 | [1] 0.015 | defactinib 0.004 | rucaparib -0.002 | [2] -0.056 | encorafenib -0.005 | [3] 0.027

Additional records

TADA3 (UniProt O75528)
inactive: saracatinib -0.026 | sotrastaurin -0.023 | alvocidib -0.071 | Tubastatin A 0 | [1] 0.062 | defactinib -0.038 | rucaparib -0.068 | [2] -0.048 | encorafenib -0.014 | [3] 0.047

SYNGR2 (UniProt O43760)
inactive: saracatinib 0.016 | sotrastaurin 0.086 | alvocidib 0.106 | Tubastatin A -0.022 | [1] 0.018 | defactinib -0.008 | rucaparib -0.023 | [2] -0.1 | encorafenib -0.035 | [3] 0.027

SWAP70 (UniProt Q9UH65)
inactive: saracatinib 0.009 | sotrastaurin -0.01 | alvocidib -0.012 | Tubastatin A 0.024 | [1] -0.007 | defactinib -0.039 | rucaparib -0.063 | [2] -0.031 | encorafenib 0.09 | [3] -0.014

SYPL1 (UniProt Q16563)
inactive: saracatinib 0.05 | sotrastaurin 0.034 | alvocidib -0.047 | Tubastatin A -0.007 | [1] 0.027 | defactinib -0.025 | rucaparib -0.028 | [2] -0.032 | encorafenib 0.032 | [3] 0.005

SUPT6H (UniProt Q7KZ85)
inactive: saracatinib -0.032 | sotrastaurin -0.047 | alvocidib 0.445 | Tubastatin A 0.032 | [1] -0.053 | defactinib -0.039 | rucaparib 0.06 | [2] 0.079 | encorafenib -0.008 | [3] -0.233
